The whole screen tested about 210,000 compounds, of which about 5,900 (2.8%) were called active. About 5% were inconclusive and are not listed. Calls come from the whole dose curve; as a rule, active = well fitted activation curve with a large enough effect; inconclusive = small, poorly fitted or top-dose-only effect; inactive = no such curve, though single readings can be large or run the other way. The entries are a selection whose mix differs from that of the whole data set. Where no call is shown, the source filed none.
Potency is the fitted concentration of half-maximal effect.

This experiment is described as follows: qHTS Assay for Enhancers of SMN2 Splice Variant Expression. For activity change, positive = activation: % of control where 0% means no effect. Note: nearly all actives have a fitted effect of over 55% in size. The note with it: HEK293 SMN2-luciferase splicing reporter, luminescence, 30-36 h; activity change, positive = activation: at 46.1 µM (top of the series) unless noted. A digest of the protocol:
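HEK293 cells carry an SMN2 minigene-luciferase reporter in which exon 7 inclusion puts luciferase in frame. Cells were seeded at 2000 cells/well, attached for 10-12 hours, then exposed to compounds for 30-36 hours at 37C before ONE-Glo luminescence.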
On to `CC1(C)CC(NC(=O)CC(c2ccccc2)c2ccccc2)CC(C)(C)N1`, for which the activity change, positive = activation stood at 61%.

Turning to `CC(C)C(C)(C#N)NC(=O)CSc1ncnc2sc(-c3ccccc3)cc12` (configuration not stated), the activity change, positive = activation is -57.1%. The same measure, in the same setting: then `Cc1ccc(C)n1-c1ccc(C(=O)Nc2ccccc2F)cc1`, with 95.5%; and `CCS(=O)(=O)c1ccc2oc(Nc3ccc(OC)cc3)nc2c1`, with inactive: 2.88%. In the case of `COC(=O)[C@@H]1C[C@H]1[C@@H](NS(=O)(=O)c1ccc(-c2ccccc2)cc1)c1ccccc1`, the “activity change, positive = activation” value was inactive: -56.8%.

On to `COc1ccc(OC)c(-c2nc3c(C)n[nH]c(=O)c3[nH]2)c1`, for which the “activity change, positive = activation” value is inactive: -38.2%. Same read-out and setting: then `CC(Sc1nnc(-c2cccs2)n1-c1ccccc1)C(=O)NCc1ccco1` (configuration not stated), with 37.5%; and `COC(=O)c1ccc(C2C(C#N)=C(N)Oc3cc(C)n(C)c(=O)c32)cc1` (configuration not stated), with 33%; and `Cc1cccc(NC(=O)CC(C)(C)C)c1`, with 40%. Consider `COc1ccccc1NC(=O)N1CCCC1C(=O)NCc1ccccc1F` (configuration not stated), for which the Potency is active: 6.31 µM.

As for `COCCNC(=O)CCCn1c(SCc2ccccc2Cl)nc2c(sc3ccccc32)c1=O`, the activity change, positive = activation amounted to 31.9%. With `Clc1ccc(-c2nc3n(n2)Cc2ccccc2-3)cc1`, the Potency was active: 0.501 µM. For `O=C(COc1cccc2c1CCN(Cc1ccccc1)C2=O)NCc1ccco1`, the activity change, positive = activation came to 8.6%. With `CCCCN(CCCC)C(=O)CSc1nnc2n(C)c(=O)c3c4c(sc3n12)CCCC4`, the “activity change, positive = activation” value is inactive: -56.5%. On the same count and under the same terms, under `CCCn1c(SCC(=O)Nc2nc3ccccc3s2)nc2c1c(=O)n(C)c(=O)n2C` stands -36.6%; under `CC(C)N(Cc1nc(-c2ccc(Cl)cc2)no1)C(=O)c1cccs1`, -39.8%; under `N#Cc1ncc(C(F)(F)F)cc1Sc1ccc(N)cc1`, -31.4%. The same measure, in the same setting: under `Cc1ccc(C(=O)CSc2cc(C)nc(SCC(=O)c3ccccc3)n2)cc1` stands -35.2%. The same measure, in the same setting: then `COC(=O)c1c(N)nc(C)n1-c1ccc(OC)cc1`, with 14.8%; and `CCn1c(CC(=O)Nc2ccc(C)c(Cl)c2)nnc1SCC(=O)Nc1nc(C)cs1`, with 52.2%; and `COc1cc(NC(=S)NNC(=O)CC(C)C)c(OC)cc1Cl`, with -0.815%.

In the case of `Clc1ccc2nc(CSCc3ccccc3)cn2c1`, the Potency was active: 12.6 µM. `Cc1cccc(OCc2nnc(N)s2)c1`: the activity change, positive = activation is 59.7%. As for `Cc1ccc2c(CN3CCC(C)CC3)cc(=O)oc2c1`, the Potency is active: 14.1 µM. On to `Cc1ccccc1NS(=O)(=O)c1ccc(F)cc1`, for which the activity change, positive = activation was found to be 33.2%. On the same count and under the same terms, under `O=S(=O)(c1ccccc1)N1CCN(Cc2ccccc2C(F)(F)F)CC1` stands 56.1%; under `c1ccc(NCCCNc2ccccc2)cc1`, 54.4%. Still for that read-out and setting: then `CCCCCS(=O)(=O)CCCCCCCCCCn1c(-c2ccc(O)cc2)c(C)c2cc(O)ccc21`, with inactive: -114%; and `CC1=CC(C)(C)NC(=S)N1c1ccc(C)cc1C`, with -96%. For `Cc1cnc(NC(=O)C2CCCC2)s1`, the Potency is active: 14.1 µM. Regarding `CCCN(CCO)Cc1cccc(Oc2ccccc2)c1`, the activity change, positive = activation came out at 39%. Same read-out and setting: under `C/C(=N\NC(=O)c1ccncc1)c1cccs1` stands 31.3%. `COCCn1c(C)cc(C(=O)CSc2ccc3ccccc3n2)c1C`: the Potency is active: 11.2 µM. As for `COc1ccc(NC(=O)c2ccc3c(=O)n(-c4ccc(OC)cc4OC)c(=S)[nH]c3c2)c(OC)c1`, the “activity change, positive = activation” value was inactive: -40.4%. Still for that read-out and setting: then `CCOc1ccc2cc(S(=O)(=O)n3ccnc3C)ccc2c1`, with 42.6%; and `CCOC(=O)c1c(NC(=O)c2cccs2)sc2c1CCCC2`, with 35.9%; and `O=[N+]([O-])c1cc(-c2nc(-c3ccncc3)no2)cc([N+](=O)[O-])c1`, with 37.6%. In the case of `CCOC(=O)Nc1ccc2c(C)cc(=O)oc2c1`, the Potency was active: 14.1 µM. The same measure, in the same setting: then `COc1ccc(CNC(=O)C2COc3ccccc3O2)cc1` (configuration not stated), with active: 12.6 µM. Consider `CCN(CC)CCCNC(=O)c1[nH]c(C)c(C(=O)NC2CCCCC2)c1C`, for which the activity change, positive = activation was determined as 30.4%. The same measure, in the same setting: then `CCc1ccc(OCCOCC(O)CN2CCN(Cc3ccc(Cl)cc3)CC2)cc1` (configuration not stated), with inactive: -60.4%. Take `Cc1ccc(C(=O)/C=C/Nc2cccc([N+](=O)[O-])c2)o1`: the Potency was active: 14.1 µM. The same measure, in the same setting: under `COc1ccc(Nc2ncc(F)c(N3CCOCC3)n2)cc1` stands active: 10 µM. For the molecule `COc1ccc(NC(=O)C23CCC(C)(C(=O)O2)C3(C)C)cc1` (configuration not stated), the activity change, positive = activation turned out to be 25.1%. On to `CCN(C(=O)COC(=O)c1ccc(COc2ccc3c(C)cc(=O)oc3c2)cc1)C1CCS(=O)(=O)C1` (configuration not stated), for which the activity change, positive = activation came to 77.1%. Same read-out and setting: under `O=C(CSc1ncn[nH]1)NC1CC2CCC1C2` (configuration not stated) stands 27.1%; under `CNc1nc2sc3c(c2c(=O)n1C)CC(C)(C)SC3`, inactive: -30.2%; under `Nn1c(Nc2ccccc2)nc2sc3c(c2c1=O)CCC3`, inactive: -51.2%.

In the case of `COc1ccc(/C=N\n2nnc3ccccc32)cc1`, the Potency is active: 0.794 µM.

With `CCCN(CCC)CCNC(=O)C1c2ccccc2C(=O)N(CCOC)C1c1ccc(F)cc1` (configuration not stated), the activity change, positive = activation stood at 26.6%.

Consider `COc1ccc(-c2ccc(SCC(=O)NCC3CCCO3)nn2)cc1OC` (configuration not stated), for which the activity change, positive = activation turned out to be 50.9%. Consider `O=C(CSc1ccc(Cl)cc1)N1CCN(c2ccc(Cl)cc2[N+](=O)[O-])CC1`, for which the “activity change, positive = activation” value was inactive: -37.5%. The same measure, in the same setting: under `COc1cc(Br)cc(CN2CCN(C=O)CC2)c1O` stands 60.6%. Still for that read-out and setting: under `COCCn1nnnc1C(c1ccc(O)c(OC)c1)N1CCc2ccccc2C1` (configuration not stated) stands 41.5%. In the case of `O=C(/C=C/c1ccc2c(c1)OCCCO2)c1ccc2ccccc2c1O`, the “activity change, positive = activation” value is inactive: -34.3%. Same read-out and setting: under `CC(C)Cn1c(CN2CCN(c3cccc(Cl)c3)CC2)nc2c1c(=O)[nH]c(=O)n2C` stands 22.8%; under `Cc1ccc(N2CC(C(=O)NCc3ccccn3)CC2=O)cc1` (configuration not stated), 32.4%.
